4 sequences from patent publication US20140357578 can be followed below.

Chains of the proteins cited; added tags and fusions are not shown. Residues count along the entry.
UniProt P19338, 2-710: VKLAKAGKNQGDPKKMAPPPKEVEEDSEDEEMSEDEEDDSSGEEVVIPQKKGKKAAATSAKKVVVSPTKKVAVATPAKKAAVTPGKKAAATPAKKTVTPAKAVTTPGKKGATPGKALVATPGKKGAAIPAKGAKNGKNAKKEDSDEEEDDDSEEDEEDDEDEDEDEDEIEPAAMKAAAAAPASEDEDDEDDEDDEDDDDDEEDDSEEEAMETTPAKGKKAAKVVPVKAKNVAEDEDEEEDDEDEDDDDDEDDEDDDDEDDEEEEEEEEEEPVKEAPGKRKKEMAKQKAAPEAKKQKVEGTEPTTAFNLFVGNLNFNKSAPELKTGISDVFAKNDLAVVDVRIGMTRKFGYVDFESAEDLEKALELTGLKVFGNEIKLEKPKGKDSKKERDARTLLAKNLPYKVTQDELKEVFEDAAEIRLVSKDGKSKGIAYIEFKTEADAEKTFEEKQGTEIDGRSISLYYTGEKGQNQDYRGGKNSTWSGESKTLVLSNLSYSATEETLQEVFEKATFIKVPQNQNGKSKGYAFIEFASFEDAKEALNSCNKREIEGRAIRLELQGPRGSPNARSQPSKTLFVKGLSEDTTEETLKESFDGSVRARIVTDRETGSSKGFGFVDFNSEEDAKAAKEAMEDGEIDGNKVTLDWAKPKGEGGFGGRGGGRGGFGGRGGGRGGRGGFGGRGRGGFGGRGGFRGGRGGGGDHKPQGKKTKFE
UniProt P19338, whole entry: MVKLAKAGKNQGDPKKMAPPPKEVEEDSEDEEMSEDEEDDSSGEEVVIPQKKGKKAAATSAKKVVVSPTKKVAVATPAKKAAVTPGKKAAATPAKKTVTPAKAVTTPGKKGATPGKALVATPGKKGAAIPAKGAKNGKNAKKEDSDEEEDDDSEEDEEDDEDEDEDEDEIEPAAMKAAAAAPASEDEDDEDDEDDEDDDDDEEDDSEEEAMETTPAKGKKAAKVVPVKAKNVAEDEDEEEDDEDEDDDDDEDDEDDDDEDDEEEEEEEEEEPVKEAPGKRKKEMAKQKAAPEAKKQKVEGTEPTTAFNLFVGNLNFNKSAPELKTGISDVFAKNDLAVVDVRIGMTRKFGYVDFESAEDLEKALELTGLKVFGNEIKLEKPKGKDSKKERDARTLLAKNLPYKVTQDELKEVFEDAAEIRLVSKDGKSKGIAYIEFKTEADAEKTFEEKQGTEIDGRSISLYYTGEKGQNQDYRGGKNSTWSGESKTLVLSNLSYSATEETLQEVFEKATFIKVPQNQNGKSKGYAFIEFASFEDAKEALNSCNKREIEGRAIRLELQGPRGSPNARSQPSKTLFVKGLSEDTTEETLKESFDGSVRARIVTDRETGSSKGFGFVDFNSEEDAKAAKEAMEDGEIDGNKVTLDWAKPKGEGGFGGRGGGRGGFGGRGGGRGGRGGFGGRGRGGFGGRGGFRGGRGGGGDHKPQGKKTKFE

The exact form of at least one protein or probe is not confirmed. No signal at the amounts used counts as a negative. For some of these results: Where cells or extracts were used, other partners may take part.

The target in data set [1] is Nucleolin (NCL), endogenous (UniProt P19338). As to the kind of experiment: pull-down. As to conditions: protein in an extract.
In data set [2] the target is Nucleolin (NCL), GST fusion (UniProt P19338). As to the kind of experiment: pull-down. As to conditions: purified recombinant protein, protein details: GST fusion, Abnova H00004691-P01.

Regarding “CAGCAGCAGCAGCAGCAGCAGCAGCAGCAGCAGCAGCAGCAGCAGCAGCAGCAGCAGCAGCAGCAGCAGCAGCAGCAGCAG [MJDCAG27 RNA (cellular transcript)]”, in data set [1] (RNA immunoprecipitation, unexpanded control, variant of MJDCAG78 RNA (cellular transcript)), the binding result is recorded as “no binding”.

As to “CAGCAGCAGCAGCAGCAGCAGCAGCAGCAGCAGCAGCAGCAGCAGCAGCAGCAGCAGCAGCAGCAGCAGCAGCAGCAGCAGCAGCAGCAGCAGCAGCAGCAGCAGCAGCAGCAGCAGCAGCAGCAGCAGCAGCAGCAGCAGCAGCAGCAGCAGCAGCAGCAGCAGCAGCAGCAGCAGCAGCAGCAGCAGCAGCAGCAGCAGCAGCAGCAGCAGCAGCAGCAGCAGCAGCAGCAG [CAG78 RNA (in vitro transcribed from MJDCAG78 PCR product)]”, the binding result in data set [2] (20 mM Hepes pH 7.4, 150 mM NaCl, 5 mM MgCl2, 0.5% NP-40, yeast tRNA, 4 C, RT-PCR) is reported as “binds”.

As to “CAGCAGCAGCAGCAGCAGCAGCAGCAGCAGCAGCAGCAGCAGCAGCAGCAGCAGCAGCAGCAGCAGCAGCAGCAGCAGCAGCAGCAGCAGCAGCAGCAGCAGCAGCAGCAGCAGCAGCAGCAGCAGCAGCAGCAGCAGCAGCAGCAGCAGCAGCAGCAGCAGCAGCAGCAGCAGCAGCAGCAGCAGCAGCAGCAGCAGCAGCAGCAGCAGCAGCAGCAGCAGCAGCAGCAGCAG [MJDCAG78 RNA (cellular transcript)]”, in data set [1] (RNA immunoprecipitation from cell lysate, 5 mM MgCl2, 4 C), the binding result is “binds”.

As for “CUGCUGCUGCUGCUGCUGCUGCUGCUGCUGCUGCUGCUGCUGCUGCUGCUGCUGCUGCUGCUGCUGCUGCUGCUGCUGCUGCUGCUGCUGCUGCUGCUGCUGCUGCUGCUGCUGCUGCUGCUGCUGCUGCUGCUGCUGCUGCUGCUGCUGCUGCUGCUGCUGCUGCUGCUGCUGCUGCUGCUGCUGCUGCUGCUGCUGCUGCUGCUGCUGCUGCUGCUGCUGCUGCUGCUGCUG [CUG78 RNA (in vitro transcribed)]”, in data set [2] (same buffer as CAG78), the binding result is listed as “no binding”.
